# Measurements published in the supplement of paper PMC12067093, “Discovery and optimisation of a covalent ligand for TRIM25 and its application to targeted protein ubiquitination” (Chemical Science, 2025).
# The chains behind the UniProt entries cited, without tags or fusion partners. Where a name states a change or a piece, a line headed by the entry shows the natural chain unless it says otherwise.
# UniProt P50990: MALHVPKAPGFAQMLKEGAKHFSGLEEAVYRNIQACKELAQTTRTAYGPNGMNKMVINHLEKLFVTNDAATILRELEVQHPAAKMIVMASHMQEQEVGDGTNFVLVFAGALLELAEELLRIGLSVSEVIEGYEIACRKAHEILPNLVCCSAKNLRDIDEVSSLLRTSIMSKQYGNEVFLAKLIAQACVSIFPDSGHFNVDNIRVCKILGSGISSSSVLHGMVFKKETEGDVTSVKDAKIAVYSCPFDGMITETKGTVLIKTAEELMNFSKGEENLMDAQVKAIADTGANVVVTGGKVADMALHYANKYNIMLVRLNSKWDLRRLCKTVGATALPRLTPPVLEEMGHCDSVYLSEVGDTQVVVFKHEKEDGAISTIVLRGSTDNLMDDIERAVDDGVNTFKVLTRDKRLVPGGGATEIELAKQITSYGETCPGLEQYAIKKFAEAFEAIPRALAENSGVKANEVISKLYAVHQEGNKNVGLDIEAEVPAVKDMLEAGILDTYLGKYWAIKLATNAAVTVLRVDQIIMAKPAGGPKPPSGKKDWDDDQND
# UniProt P28907, whole entry, looked up: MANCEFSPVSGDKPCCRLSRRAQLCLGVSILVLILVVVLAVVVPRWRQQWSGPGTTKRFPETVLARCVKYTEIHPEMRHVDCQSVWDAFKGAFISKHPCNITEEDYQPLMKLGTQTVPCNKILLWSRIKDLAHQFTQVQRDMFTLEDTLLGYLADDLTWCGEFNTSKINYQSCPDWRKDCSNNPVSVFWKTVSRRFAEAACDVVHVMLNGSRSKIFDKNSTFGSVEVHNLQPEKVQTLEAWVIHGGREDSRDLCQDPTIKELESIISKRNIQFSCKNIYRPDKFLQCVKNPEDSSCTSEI
# UniProt Q16543: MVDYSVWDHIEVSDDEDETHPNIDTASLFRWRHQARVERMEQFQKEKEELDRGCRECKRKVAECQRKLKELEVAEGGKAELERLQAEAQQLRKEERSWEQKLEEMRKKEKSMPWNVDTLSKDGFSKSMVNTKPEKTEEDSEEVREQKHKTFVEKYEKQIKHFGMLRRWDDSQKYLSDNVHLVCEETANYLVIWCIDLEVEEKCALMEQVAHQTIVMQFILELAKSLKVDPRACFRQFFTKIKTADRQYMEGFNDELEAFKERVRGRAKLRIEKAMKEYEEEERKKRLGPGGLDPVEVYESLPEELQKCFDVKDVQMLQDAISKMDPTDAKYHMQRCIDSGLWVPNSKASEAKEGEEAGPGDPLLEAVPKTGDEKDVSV
# UniProt Q9Y6K0: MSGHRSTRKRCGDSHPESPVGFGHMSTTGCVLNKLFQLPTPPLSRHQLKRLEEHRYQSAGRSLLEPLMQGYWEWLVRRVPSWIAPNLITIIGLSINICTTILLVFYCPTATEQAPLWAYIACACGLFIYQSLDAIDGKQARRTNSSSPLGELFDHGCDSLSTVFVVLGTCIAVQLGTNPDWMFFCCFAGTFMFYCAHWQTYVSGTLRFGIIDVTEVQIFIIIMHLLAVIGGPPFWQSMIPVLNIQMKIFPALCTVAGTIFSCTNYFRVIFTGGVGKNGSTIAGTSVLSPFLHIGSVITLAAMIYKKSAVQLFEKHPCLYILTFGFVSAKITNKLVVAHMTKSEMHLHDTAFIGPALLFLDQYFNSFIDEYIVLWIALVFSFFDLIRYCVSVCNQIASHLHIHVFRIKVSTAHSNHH
# UniProt Q69YH5: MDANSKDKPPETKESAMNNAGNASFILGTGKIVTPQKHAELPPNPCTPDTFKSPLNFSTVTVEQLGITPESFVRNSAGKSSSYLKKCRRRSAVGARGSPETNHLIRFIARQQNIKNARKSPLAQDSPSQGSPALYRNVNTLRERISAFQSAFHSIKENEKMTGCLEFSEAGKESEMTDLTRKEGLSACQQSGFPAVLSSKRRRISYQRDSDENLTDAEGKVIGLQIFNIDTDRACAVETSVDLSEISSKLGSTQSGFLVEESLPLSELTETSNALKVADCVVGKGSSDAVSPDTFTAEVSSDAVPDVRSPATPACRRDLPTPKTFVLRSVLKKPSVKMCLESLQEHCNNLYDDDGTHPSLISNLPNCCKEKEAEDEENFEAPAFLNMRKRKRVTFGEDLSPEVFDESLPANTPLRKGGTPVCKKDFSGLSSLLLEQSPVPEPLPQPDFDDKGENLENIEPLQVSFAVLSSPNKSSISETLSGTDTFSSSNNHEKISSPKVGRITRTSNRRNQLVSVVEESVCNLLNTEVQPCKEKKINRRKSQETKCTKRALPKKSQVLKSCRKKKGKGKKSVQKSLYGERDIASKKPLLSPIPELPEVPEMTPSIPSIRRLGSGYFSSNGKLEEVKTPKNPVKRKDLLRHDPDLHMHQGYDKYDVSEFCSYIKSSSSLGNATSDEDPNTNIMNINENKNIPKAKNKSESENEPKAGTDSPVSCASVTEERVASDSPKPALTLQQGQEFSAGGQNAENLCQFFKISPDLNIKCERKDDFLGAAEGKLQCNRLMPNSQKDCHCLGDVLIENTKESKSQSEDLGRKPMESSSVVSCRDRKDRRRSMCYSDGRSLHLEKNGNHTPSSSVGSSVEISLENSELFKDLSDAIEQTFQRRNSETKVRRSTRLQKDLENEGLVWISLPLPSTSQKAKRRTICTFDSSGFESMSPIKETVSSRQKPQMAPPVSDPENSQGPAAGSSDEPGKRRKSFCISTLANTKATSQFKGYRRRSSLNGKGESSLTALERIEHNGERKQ
# UniProt Q99832: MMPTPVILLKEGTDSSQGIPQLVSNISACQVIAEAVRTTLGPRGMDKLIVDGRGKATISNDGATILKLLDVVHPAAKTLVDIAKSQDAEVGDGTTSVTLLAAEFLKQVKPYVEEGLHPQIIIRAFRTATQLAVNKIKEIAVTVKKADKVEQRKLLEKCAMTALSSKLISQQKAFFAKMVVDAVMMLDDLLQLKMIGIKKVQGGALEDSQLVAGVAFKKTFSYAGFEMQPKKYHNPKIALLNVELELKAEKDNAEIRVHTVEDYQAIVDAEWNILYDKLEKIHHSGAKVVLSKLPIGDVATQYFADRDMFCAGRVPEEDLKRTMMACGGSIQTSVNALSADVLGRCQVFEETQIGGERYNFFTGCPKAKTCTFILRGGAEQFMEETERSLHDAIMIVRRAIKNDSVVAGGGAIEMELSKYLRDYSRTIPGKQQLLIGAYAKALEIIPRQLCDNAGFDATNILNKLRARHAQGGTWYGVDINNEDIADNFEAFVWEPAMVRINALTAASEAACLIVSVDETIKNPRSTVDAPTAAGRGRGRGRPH
# UniProt Q6ZU80: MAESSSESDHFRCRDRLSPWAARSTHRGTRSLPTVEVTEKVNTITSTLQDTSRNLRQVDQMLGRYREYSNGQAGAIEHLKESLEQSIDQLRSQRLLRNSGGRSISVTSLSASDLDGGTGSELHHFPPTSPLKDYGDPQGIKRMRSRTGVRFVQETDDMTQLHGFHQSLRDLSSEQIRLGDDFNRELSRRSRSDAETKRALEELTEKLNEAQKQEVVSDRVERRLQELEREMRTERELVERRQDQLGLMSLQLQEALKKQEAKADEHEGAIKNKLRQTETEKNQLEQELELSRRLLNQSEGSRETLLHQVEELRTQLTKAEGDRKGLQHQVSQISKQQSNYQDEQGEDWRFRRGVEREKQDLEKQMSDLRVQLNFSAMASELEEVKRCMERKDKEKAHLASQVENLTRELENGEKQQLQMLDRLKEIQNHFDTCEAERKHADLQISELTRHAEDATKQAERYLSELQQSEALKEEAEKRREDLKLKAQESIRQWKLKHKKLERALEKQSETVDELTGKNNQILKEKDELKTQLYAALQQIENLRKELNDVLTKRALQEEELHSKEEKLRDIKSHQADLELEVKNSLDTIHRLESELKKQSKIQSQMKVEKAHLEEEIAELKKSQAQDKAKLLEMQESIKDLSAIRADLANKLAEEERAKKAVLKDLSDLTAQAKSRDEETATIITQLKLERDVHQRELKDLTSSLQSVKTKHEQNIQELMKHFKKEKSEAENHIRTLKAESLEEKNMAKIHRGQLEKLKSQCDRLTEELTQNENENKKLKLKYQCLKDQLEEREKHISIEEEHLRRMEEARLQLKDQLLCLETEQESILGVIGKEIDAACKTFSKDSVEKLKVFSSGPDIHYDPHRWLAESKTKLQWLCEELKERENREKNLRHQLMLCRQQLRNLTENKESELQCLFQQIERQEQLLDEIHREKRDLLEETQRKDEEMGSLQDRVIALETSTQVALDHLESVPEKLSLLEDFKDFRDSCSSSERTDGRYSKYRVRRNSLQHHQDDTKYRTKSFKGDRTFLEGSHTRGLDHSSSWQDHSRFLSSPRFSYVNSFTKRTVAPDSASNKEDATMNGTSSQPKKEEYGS
# UniProt Q9NYV4, whole entry, looked up: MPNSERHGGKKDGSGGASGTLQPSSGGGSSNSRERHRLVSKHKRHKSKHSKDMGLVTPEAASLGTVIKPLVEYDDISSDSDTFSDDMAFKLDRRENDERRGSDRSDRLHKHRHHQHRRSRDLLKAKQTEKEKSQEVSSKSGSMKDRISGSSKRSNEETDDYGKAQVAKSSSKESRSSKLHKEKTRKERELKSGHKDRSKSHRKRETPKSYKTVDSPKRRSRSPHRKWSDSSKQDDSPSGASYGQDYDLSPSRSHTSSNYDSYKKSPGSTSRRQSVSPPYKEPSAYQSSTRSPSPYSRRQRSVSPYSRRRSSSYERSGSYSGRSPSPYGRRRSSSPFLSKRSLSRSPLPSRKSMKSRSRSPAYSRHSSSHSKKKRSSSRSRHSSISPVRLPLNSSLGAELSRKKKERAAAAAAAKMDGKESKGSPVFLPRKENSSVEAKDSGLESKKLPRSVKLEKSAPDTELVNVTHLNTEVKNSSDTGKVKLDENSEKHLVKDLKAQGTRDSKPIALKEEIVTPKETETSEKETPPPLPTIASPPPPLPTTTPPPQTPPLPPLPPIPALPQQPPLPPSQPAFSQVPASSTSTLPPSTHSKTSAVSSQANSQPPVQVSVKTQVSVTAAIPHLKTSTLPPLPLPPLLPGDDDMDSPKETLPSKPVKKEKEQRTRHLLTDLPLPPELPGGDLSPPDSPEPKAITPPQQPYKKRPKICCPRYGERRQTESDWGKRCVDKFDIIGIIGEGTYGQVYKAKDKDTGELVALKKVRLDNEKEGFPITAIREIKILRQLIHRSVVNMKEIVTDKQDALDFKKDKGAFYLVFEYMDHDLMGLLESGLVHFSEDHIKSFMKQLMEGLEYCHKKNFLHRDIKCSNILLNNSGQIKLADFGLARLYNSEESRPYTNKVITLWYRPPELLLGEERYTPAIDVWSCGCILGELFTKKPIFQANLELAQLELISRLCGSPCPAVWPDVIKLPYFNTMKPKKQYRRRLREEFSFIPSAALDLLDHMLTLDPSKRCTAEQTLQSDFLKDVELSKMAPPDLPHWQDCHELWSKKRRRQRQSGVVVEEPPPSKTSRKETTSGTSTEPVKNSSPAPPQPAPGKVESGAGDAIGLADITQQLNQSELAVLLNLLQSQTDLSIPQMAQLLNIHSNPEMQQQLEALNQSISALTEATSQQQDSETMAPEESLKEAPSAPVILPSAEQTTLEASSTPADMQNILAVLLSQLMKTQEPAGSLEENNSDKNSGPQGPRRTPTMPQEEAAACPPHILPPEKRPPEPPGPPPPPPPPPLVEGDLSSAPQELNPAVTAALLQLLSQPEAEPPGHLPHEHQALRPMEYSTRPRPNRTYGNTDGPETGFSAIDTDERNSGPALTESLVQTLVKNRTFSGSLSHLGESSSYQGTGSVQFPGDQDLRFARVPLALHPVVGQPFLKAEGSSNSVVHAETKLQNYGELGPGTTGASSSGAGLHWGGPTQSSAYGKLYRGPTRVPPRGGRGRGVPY
# UniProt Q96BT3, whole entry: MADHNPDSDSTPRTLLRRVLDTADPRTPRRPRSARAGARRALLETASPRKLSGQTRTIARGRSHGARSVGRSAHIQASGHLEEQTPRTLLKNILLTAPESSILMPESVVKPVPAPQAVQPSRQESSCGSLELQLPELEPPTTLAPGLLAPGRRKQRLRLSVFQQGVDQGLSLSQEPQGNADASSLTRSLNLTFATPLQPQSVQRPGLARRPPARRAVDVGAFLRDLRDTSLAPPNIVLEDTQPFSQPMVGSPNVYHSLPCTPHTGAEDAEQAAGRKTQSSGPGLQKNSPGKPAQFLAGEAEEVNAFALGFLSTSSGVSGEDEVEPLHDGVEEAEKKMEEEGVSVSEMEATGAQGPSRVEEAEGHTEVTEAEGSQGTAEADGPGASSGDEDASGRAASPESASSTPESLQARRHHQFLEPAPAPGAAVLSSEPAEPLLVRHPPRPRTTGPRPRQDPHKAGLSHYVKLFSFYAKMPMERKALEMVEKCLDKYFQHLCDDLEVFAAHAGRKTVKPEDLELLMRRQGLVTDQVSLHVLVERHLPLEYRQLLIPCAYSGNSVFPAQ
# UniProt P32970: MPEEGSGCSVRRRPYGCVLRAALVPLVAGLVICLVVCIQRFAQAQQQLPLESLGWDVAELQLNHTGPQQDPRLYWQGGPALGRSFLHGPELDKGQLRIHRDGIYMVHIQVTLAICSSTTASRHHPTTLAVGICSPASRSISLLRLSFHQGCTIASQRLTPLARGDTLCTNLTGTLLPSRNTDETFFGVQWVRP
# The list shows a part of the results.
# Compound: Cc1cc(ccc1-c1ccccc1)C(=O)N1CCCN(CC1)C(=O)CCl [compound 10]
# Test: probe-labelled cysteine peptide fold change vs DMSO (competition) (log2 fold change); higher = less target engagement (more negative = stronger competition)
# Conditions: THP-1, incubation time: 4 h
# 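Also: competitive profiling in live THP-1 cells: cysteine peptides tagged with an iodoacetamide desthiobiotin (IA-DTB) probe, intensity after compound treatment relative to DMSO-treated cells.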
Target,probe-labelled cysteine peptide fold change (10 µM),probe-labelled cysteine peptide fold change (50 µM)
CENPN_Q96H22_325_SLAPAGIADAPLSPLLTCIPNKR (UniProt Q96H22),-0.161,-0.132
CENPL_Q8N0S6_286_TPGEVTQEEVDLFMDCLYSHFHR (UniProt Q8N0S6),-0.289,-0.126
CCT8_P50990_148_KAHEILPNLVCCSAK (UniProt P50990),-0.0972,-0.612
CDT1_Q9H211_163_ASAQDAGESCTPEAEGRPEEPCGEK (UniProt Q9H211),-0.292,-0.434
CEP192_Q8TEP8_1562_APVEVAPCADVVTR (UniProt Q8TEP8),-0.611,-0.285
CDC123_O75794_170_WCELIPGAEFR (UniProt O75794),-0.0582,0.106
CD2BP2_O95400_234_GLGCQTLGPHNPTPPPSLDMFAEELAEEELETPTPTQR (UniProt O95400),-0.0376,-0.382
CD151_P48509_192_TVVALCGQR (UniProt P48509),-0.059,-0.0247
CD38_P28907_82_HVDCQSVWDAFK (UniProt P28907),-0.000509,0.256
CDC37_Q16543_336_CIDSGLWVPNSK (UniProt Q16543),0.17,0.0591
CEP350_Q5VT06_3083_DRVDHILVQELHEEEAQWVNYDEDELCVK (UniProt Q5VT06),-0.0902,-0.164
CEPT1_Q9Y6K0_11+30_CGDSHPESPVGFGHMSTTGCVLNK (UniProt Q9Y6K0),-1.98,-2.17
CDCA4_Q9BXL8_10_CVGHEEDVEGALAGLK (UniProt Q9BXL8),-0.0781,0.0716
CENPV_Q7Z7K6_240_SNPGGFGIAPHCLDEGTVR (UniProt Q7Z7K6),-0.111,-0.164
CDS1_Q92903_10_GSCPGPR (UniProt Q92903),0.244,0.146
CDKN2C_P42773_141_NHKGDTACDLAR (UniProt P42773),0.164,-0.599
CEP250_Q9BV73_1557_QLVTLECLALELEENHHK (UniProt Q9BV73),0.0292,0.153
CDCA2_Q69YH5_714_AGTDSPVSCASVTEER (UniProt Q69YH5),-0.456,-0.149
CENPF_P49454_1947_LEYFSCDHQELLQR (UniProt P49454),0.249,0.198
CDCA2_Q69YH5_979_SFCISTLANTK (UniProt Q69YH5),-0.0796,-0.162
CCT7_Q99832_364_YNFFTGCPK (UniProt Q99832),-0.23,-0.0387
CEP170_Q5SW79_30_DDCELMLQSR (UniProt Q5SW79),-0.0456,0.0936

Target,probe-labelled cysteine peptide fold change (10 µM),probe-labelled cysteine peptide fold change (50 µM)
CEP128_Q6ZU80_433_EIQNHFDTCEAER (UniProt Q6ZU80),0.0384,0.225
CCT5_P48643_493_EMNPALGIDCLHK (UniProt P48643),-0.0731,-0.155
CENPF_P49454_752_CYQDLHAEYESLRDLLK (UniProt P49454),0.0879,0.147
CDK5_Q00535_83_KLTLVFEFCDQDLKK (UniProt Q00535),-0.00991,-0.158
CEP128_Q6ZU80_989_DSCSSSER (UniProt Q6ZU80),-0.199,-0.274
CEP170_Q5SW79_235_QVEEQSAAANEEVLFPFCR (UniProt Q5SW79),-0.166,0.167
CDK1_P06493_119_SYLYQILQGIVFCHSR (UniProt P06493),-0.0167,-0.101
CDK12_Q9NYV4_862_CSNILLNNSGQIK (UniProt Q9NYV4),-0.0809,-0.0162
CDC37_Q16543_64_KVAECQR (UniProt Q16543),0.172,-0.253
CENPT_Q96BT3_495_YFQHLCDDLEVFAAHAGR (UniProt Q96BT3),0.067,0.296
CD63_P08962_177_NRVPDSCCINVTVGCGINFNEK (UniProt P08962),0.0454,0.0187
CEP152_O94986_1167_DLCCGHCFQELEK (UniProt O94986),-0.165,-0.6
CES1_P23141_285_TTTSAVMVHCLR (UniProt P23141),0.0256,0.129
CD276_Q5ZPR3_383_DLRPGDTVTITCSSYR (UniProt Q5ZPR3),0.0128,0.0319
CDR2_Q01850_432_EIFSCIK (UniProt Q01850),0.0698,0.087
CDC16_Q13042_163_LDVYCFEAFDLLTSHHMLTAQEEK (UniProt Q13042),0.345,0.144
CENPF_P49454_1291_YISGPHELSTSQNDNAHLQCSLQTTMNK (UniProt P49454),0.101,-0.0749
CD38_P28907_254_DLCQDPTIK (UniProt P28907),-0.444,0.0381
CD180_Q99467_419_ECPQLELLDLAFTR (UniProt Q99467),-0.115,-0.108
CEP55_Q53EZ4_443_CNIQYPATEHR (UniProt Q53EZ4),0.0641,-0.15
CDC37L1_Q7L3B6_190_FLSDHPYLVCEETAK (UniProt Q7L3B6),-0.0727,0.207
CDK5RAP3_Q96JB5_165_EQFYHSCK (UniProt Q96JB5),-0.0527,0.0562

# In a second layout: results already given
Target | probe-labelled cysteine peptide fold change (10 µM) | probe-labelled cysteine peptide fold change (50 µM)
CDK12_Q9NYV4_862_CSNILLNNSGQIK (UniProt Q9NYV4) | -0.0809 | -0.0162
CDC37_Q16543_64_KVAECQR (UniProt Q16543) | 0.172 | -0.253
CENPT_Q96BT3_495_YFQHLCDDLEVFAAHAGR (UniProt Q96BT3) | 0.067 | 0.296

# (list continues)

Target,probe-labelled cysteine peptide fold change (10 µM),probe-labelled cysteine peptide fold change (50 µM)
CDK5_Q00535_290_ISAEEALQHPYFSDFCPP (UniProt Q00535),-0.284,-0.403
CEP250_Q9BV73_630_VGLNQQLLQLEEENQSVCSR (UniProt Q9BV73),0.113,0.175
CD70_P32970_8_PEEGSGCSVR (UniProt P32970),-0.461,-0.763
CEP250_Q9BV73_2008_SLEASTATLQASLDACQAHSR (UniProt Q9BV73),0.113,0.0704
CD3EAP_O15446_150_FCAFGGNPPVTGPR (UniProt O15446),-0.0579,0.00679
CENPV_Q7Z7K6_154_HTGGCHCGAVR (UniProt Q7Z7K6),0.121,0.261
CD70_P32970_133_HHPTTLAVGICSPASR (UniProt P32970),-0.345,0.00996
CERS5_Q8N5B7_369_SPCDSSSSNGANR (UniProt Q8N5B7),-0.115,-0.159
CDC34_P49427_93_MWHPNIYETGDVCISILHPPVDDPQSGELPSER (UniProt P49427),0.0445,0.0171
CEBPZ_Q03701_374_ALTVAHELLCNKPEEEK (UniProt Q03701),0.0237,-0.0494
CDC42_P60953_157_YVECSALTQK (UniProt P60953),0.0457,0.0315
CDC42BPA_Q5VT25_121_AETACFR (UniProt Q5VT25),0.111,0.448
CDC45_O75419_267_NEDEENTLSVDCTR (UniProt O75419),-0.0624,-0.273
CENPH_Q9H3R5_35_AGGPPQVAGAQAACSEDR (UniProt Q9H3R5),0.157,-0.317
CENPF_P49454_339_CRDELVR (UniProt P49454),0.481,0.506
CCT7_Q99832_511_INALTAASEAACLIVSVDETIK (UniProt Q99832),0.163,0.484
CDK6_Q00534_15_ADQQYECVAEIGEGAYGK (UniProt Q00534),-0.178,0.0606
CDK2_P24941_177_APEILLGCK (UniProt P24941),-0.146,-0.17
CDK11B_P21127_440_SVEEFQCLNR (UniProt P21127),-0.225,-0.28
CFL1_P23528_139_HELQANCYEEVK (UniProt P23528),-0.0847,-0.12
CELF1_Q92879_177_AMHQAQTMEGCSSPMVVK (UniProt Q92879),-0.311,-0.155
CDKAL1_Q5VV42_109_ITENASDADLWLLNSCTVK (UniProt Q5VV42),0.15,0.198

Target,probe-labelled cysteine peptide fold change (10 µM),probe-labelled cysteine peptide fold change (50 µM)
CDC40_O60508_553_VCIGAVWHPHETSK (UniProt O60508),0.104,0.0461
CD38_P28907_275_NIQFSCK (UniProt P28907),-0.246,0.0472
CEP55_Q53EZ4_359_VALLEQQMQACTLDFENEK (UniProt Q53EZ4),0.0177,-0.118
CENPM_Q9NSP4_98_VCFLATGAGR (UniProt Q9NSP4),-0.175,0.132
CELF2_O95319_85_GCCFVTFYTR (UniProt O95319),0.00559,-0.01
CDAN1_Q8IWY9_1017_ACEHHAPLPSHLISEIK (UniProt Q8IWY9),0.188,-0.15
CEPT1_Q9Y6K0_30_CGDSHPESPVGFGHMSTTGCVLNK (UniProt Q9Y6K0),-2.38,-2.51
CD68_P34810_314_LQAAQLPHTGVFGQSFSCPSDR (UniProt P34810),-0.335,-0.0518
CEP128_Q6ZU80_839_EIDAACK (UniProt Q6ZU80),0.0721,-0.000557
CENPF_P49454_2834_EECLSSQK (UniProt P49454),0.222,0.272
CENPF_P49454_752_CYQDLHAEYESLR (UniProt P49454),0.259,0.41
CDK5_Q00535_83_LTLVFEFCDQDLKK (UniProt Q00535),-0.0323,0.223
CCT8_P50990_347_LTPPVLEEMGHCDSVYLSEVGDTQVVVFK (UniProt P50990),0.0548,-0.00743
CCT7_Q99832_450_QLCDNAGFDATNILNK (UniProt Q99832),0.0314,0.0421
CDC20_Q12834_364_AVAWCPWQSNVLATGGGTSDR (UniProt Q12834),-0.067,-0.188
CENPF_P49454_1790_HDVHQICDK (UniProt P49454),-0.242,0.209
CDYL_Q9Y232_571_MELEQANERECEVLK (UniProt Q9Y232),-0.166,-0.174
CDC42_P60953_18_TCLLISYTTNK (UniProt P60953),0.711,0.582
CDK4_P11802_215_RKPLFCGNSEADQLGK (UniProt P11802),-0.166,-0.0919
